Experimental data from the supplement of paper PMC12542422.
Counter-ions that a name gives are not always drawn. ± gives the standard deviation of the averaged measurements. The list shows a part of the results. Values are raw readings; no control value is given beside them.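 HeLa cells imaged for ribosome-assembly readouts (ENP1 staining with or without export block, or inducible tagged ribosomal protein reporters); machine learning classified each cell's signal location against solvent (DMSO) controls. Hits exceeded the DMSO false-positive mean by five standard deviations, then were visually confirmed; three biological replicates.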

System: HeLa K (ENP1 immunofluorescence, no LMB)
Assay: fraction of cells with nucleolar or nucleolar/nucleoplasmic ENP1 signal (MainHitrate); higher = more cells with nucleolar/nuclear readout signal (for ENP1 -LMB: less RNAPI inhibition; for +LMB ENP1 and RP reporters: stronger nuclear/nucleolar retention, i.e. ribosome biogenesis defect)
Conditions: concentration: 1 µM; treatment time: 6 h; ENP1 -LMB; leptomycin B: none

| SMILES | fraction |
| --- | --- |
| CN1CCC[C@H]1c1cccnc1 [Nicotine Ditartrate] | 0.99955 ± 0.00078 |
| CCOC(=O)C1=C(COCCN)NC(C)=C(C(=O)OC)C1c1ccccc1Cl (stereo not given) [Amlodipine (Norvasc)] | 0.977 ± 0.04 |
| C[C@]12CC[C@@H]3c4ccc(O)cc4C[C@@H](CCCCCCCCC[S+]([O-])CCCC(F)(F)C(F)(F)F)[C@H]3[C@@H]1CC[C@@H]2O (stereo not given in full) [Fulvestrant (Faslodex)] | 0.9972 ± 0.0049 |
| COc1ccc(O)cc1 [Mequinol] | 0.991 ± 0.015 |
| Nc1cccc2c1CN(C1CCC(=O)NC1=O)C2=O (stereo not given) [Lenalidomide] | 0.9989 ± 0.0019 |
| O=C(O)COCCN1CCN(C(c2ccccc2)c2ccc(Cl)cc2)CC1 (stereo not given) [Cetirizine Dihydrochloride] | 0.9988 ± 0.0022 |
| COCCOC(=O)C1=C(C)NC(C)=C(C(=O)OC(C)C)C1c1cccc([N+](=O)[O-])c1 (stereo not given) [Nimodipine (Nimotop)] | 0.9978 ± 0.0038 |
| CN1CCCC(n2nc(Cc3ccc(Cl)cc3)c3ccccc3c2=O)CC1 (stereo not given) [Azelastine hydrochloride (Astelin)] | 0.994 ± 0.011 |
| CC(C)OC(=O)OCOP(=O)(CO[C@H](C)Cn1cnc2c(N)ncnc21)OCOC(=O)OC(C)C [Tenofovir Disoproxil Fumarate] | 0.999 ± 0.0018 |
| OC[C@@H](O)[C@@H](O)[C@H](O)[C@H](O)CO [D-Mannitol (Osmitrol)] | 0.991 ± 0.016 |
| CC(C)OC(=O)C(C)(C)Oc1ccc(C(=O)c2ccc(Cl)cc2)cc1 [Fenofibrate (Tricor, Trilipix)] | 0.9955 ± 0.0078 |
| Cc1ccc(C)c(OCCCC(C)(C)C(=O)O)c1 [Gemfibrozil (Lopid)] | 0.9982 ± 0.0031 |
| C[C@]12CCC(=O)C=C1[C@@H]1C[C@@H]1[C@H]1[C@@H]3[C@@H]4C[C@@H]4[C@@]4(CCC(=O)O4)[C@@]3(C)CC[C@@H]12 [Drospirenone] | 0.9989 ± 0.0018 |
| O=C1c2cccc3c2[C@H](CCC3)CN1[C@@H]1CN2CCC1CC2 [Palonosetron HCl] | 0.975 ± 0.043 |
| CN(Cc1cnc2nc(N)nc(N)c2n1)c1ccc(C(=O)N[C@@H](CCC(=O)O)C(=O)O)cc1 [Abitrexate (Methotrexate)] | 0.9979 ± 0.0036 |
| Cc1ccc(C(=O)c2ccc(CC(=O)O)n2C)cc1 [Tolmetin Sodium] | 0.9969 ± 0.0054 |
| C=C1CC[C@H](O)C/C1=C/C=C1\CCC[C@]2(C)[C@@H]([C@H](C)CCCC(C)C)CC[C@@H]12 [Vitamin D3 (Cholecalciferol)] | 0.978 ± 0.038 |
| NCC[C@H](O)C(=O)N[C@@H]1C[C@H](N)[C@@H](O[C@H]2O[C@H](CN)[C@@H](O)[C@H](O)[C@H]2O)[C@H](O)[C@H]1O[C@H]1O[C@H](CO)[C@@H](O)[C@H](N)[C@H]1O [Amikacin sulfate] | 0.989 ± 0.019 |
| CN1CCc2cccc3c2[C@H]1Cc1ccc(O)c(O)c1-3 [R-(-)-Apomorphine HCl Hemihydrate] | 0.994 ± 0.011 |
| Cc1nccn1CC1CCc2c(c3ccccc3n2C)C1=O (stereo not given) [Ondansetron (Zofran)] | 0.989 ± 0.02 |

| SMILES | fraction |
| --- | --- |
| N[C@@H](Cc1cc(I)c(Oc2cc(I)c(O)c(I)c2)c(I)c1)C(=O)O [L-Thyroxine] | 0.986 ± 0.023 |
| O=C(O)CCCN1CCC(O[C@@H](c2ccc(Cl)cc2)c2ccccn2)CC1 [Bepotastine Besilate] | 0.985 ± 0.025 |
| CC[C@@H]([C@H](C)O)n1ncn(-c2ccc(N3CCN(c4ccc(OC[C@@H]5CO[C@@](Cn6cncn6)(c6ccc(F)cc6F)C5)cc4)CC3)cc2)c1=O [Posaconazole] | 0.9988 ± 0.002 |
| CNCC[C@@H](Oc1ccccc1C)c1ccccc1 [Atomoxetine HCl] | 0.994 ± 0.01 |
| CCN(CC)CCCC(C)Nc1ccnc2cc(Cl)ccc12 (stereo not given) [Chloroquine Phosphate] | 0.989 ± 0.019 |
| CC(C[N+](C)(C)C)OC(N)=O (stereo not given) [Bethanechol chloride] | 0.99 ± 0.017 |
| COC(=O)Nc1nc2cc(Sc3ccccc3)ccc2[nH]1 [Fenbendazole (Panacur)] | 0.993 ± 0.012 |
| Nc1ccn([C@@H]2CS[C@H](CO)O2)c(=O)n1 [Lamivudine (Epivir)] | 0.9983 ± 0.0029 |
| CC(=O)Oc1ccccc1C(=O)O [Aspirin (Acetylsalicylic acid)] | 0.965 ± 0.061 |
| Cc1cccc(N(C)C(=S)Oc2ccc3ccccc3c2)c1 [Tolnaftate] | 0.9955 ± 0.0078 |
| CC[C@@]1(O)C(=O)OCc2c1cc1n(c2=O)Cc2cc3c(CN(C)C)c(O)ccc3nc2-1 [Topotecan HCl] | 0.9945 ± 0.0096 |
| C[C@]12CCC3=C4CCC(=O)C=C4CC[C@H]3[C@@H]1CC[C@@]2(O)CC#N [Dienogest] | 0.9979 ± 0.0037 |
| OC(CNCC(O)C1CCc2cc(F)ccc2O1)C1CCc2cc(F)ccc2O1 (stereo not given) [Nebivolol (Bystolic)] | 0.9985 ± 0.0025 |
| Nc1ncnc2c1ncn2[C@@H]1O[C@H](COP(=O)(O)OP(=O)(O)OP(=O)(O)O)[C@@H](O)[C@H]1O [ATP (Adenosine-Triphosphate)] | 0.9961 ± 0.0067 |
| COC(=O)Nc1nc2cc([S+]([O-])c3ccccc3)ccc2[nH]1 (stereo not given) [Oxfendazole] | 0.99 ± 0.018 |
| O=C(O)c1ccccc1 [Benzoic acid] | 0.986 ± 0.024 |
| CCCc1nc(C(C)(C)O)c(C(=O)OCc2oc(=O)oc2C)n1Cc1ccc(-c2ccccc2-c2nnn[nH]2)cc1 [Olmesartan medoxomil (Benicar)] | 0.9979 ± 0.0036 |
| O=C(O)c1cc(-c2ccccc2)nc2ccccc12 [Cinchophen] | 0.979 ± 0.036 |
| Clc1ccc(C(c2ccccc2Cl)C(Cl)Cl)cc1 (stereo not given) [Mitotane (Lysodren)] | 0.9993 ± 0.0011 |
| CCCCOc1ccc(C(=O)CCN2CCCCC2)cc1 [Dyclonine HCl] | 0.9944 ± 0.0097 |

Some values from above:
Under fraction, Cc1ccc(C(=O)c2ccc(CC(=O)O)n2C)cc1 [Tolmetin Sodium] has the entry 0.9969 ± 0.0054
Under fraction, Nc1ccn([C@@H]2CS[C@H](CO)O2)c(=O)n1 [Lamivudine (Epivir)] has the entry 0.9983 ± 0.0029
